Measurements published in publication PMC4911038.
No constants are given. Whether binding was seen depends on the method and setting. Some entries that bind do so weakly or less than the wild type.

Target: T1, SmATG12 (Sordaria macrospora autophagy-associated ubiquitin-like protein ATG12) (Sordaria macrospora) (UniProt F7W503)
T1 sequence: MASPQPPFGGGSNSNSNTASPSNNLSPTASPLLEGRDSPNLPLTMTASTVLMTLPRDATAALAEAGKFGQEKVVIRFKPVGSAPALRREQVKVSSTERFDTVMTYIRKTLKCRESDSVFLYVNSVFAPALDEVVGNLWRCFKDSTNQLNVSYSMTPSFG
Test: two-hybrid; GAL4 system: BD baits (pGBKT7 derivatives) in strain Y187 mated with AD preys (pGADT7 derivatives) in strain AH109, or both plasmids co-transformed into AH109; interaction read as growth on SD -Trp -Leu -His/-Ade; serial dilutions; 30°C, 3-5 days

B1: SmATG3 (Sordaria macrospora E2-like enzyme ATG3) (enzyme, UniProt F7VSU2 1-346)
chain: MNFLRSTAATLLDKYTPVSHTSTFRNTGQITPEEFVAAGDYLTFKFPSWSWADADSPSKRLTFLPAGKQFLVTRHVPCHRRLNNDFAGDAGHEEALVEGNKGGDDDDGWLRTGSMTSSQPLRVREVRNIDDAGNVGDREVVDEDDIPDMEDDDDDEAIIRAEGDNSNSGKRTYTLYITYANAYKCPRMYMSGYLANGQPLPPHLMMEDIVGDYKDKTVTLEDFPFFSHSVKMASVHPCRHASVMKTLLDRADAALKLRREKMKAGQGSGSEQGMEGLVDEINKLDVSGAHANAVEAAPGEDAEWEEVPHDVTDQEVAIRVDQYLVVFLKFIASVTPGIEHDFTMGV
binding: binds
